According to paper PMC10993856:
No constants are given. Whether binding was seen depends on the method and setting. In cells and extracts the contact can be indirect. Some binding calls cover weakened binding; strength is not graded here.

The chains behind the UniProt entries cited, without tags or fusion partners.
UniProt Q08211: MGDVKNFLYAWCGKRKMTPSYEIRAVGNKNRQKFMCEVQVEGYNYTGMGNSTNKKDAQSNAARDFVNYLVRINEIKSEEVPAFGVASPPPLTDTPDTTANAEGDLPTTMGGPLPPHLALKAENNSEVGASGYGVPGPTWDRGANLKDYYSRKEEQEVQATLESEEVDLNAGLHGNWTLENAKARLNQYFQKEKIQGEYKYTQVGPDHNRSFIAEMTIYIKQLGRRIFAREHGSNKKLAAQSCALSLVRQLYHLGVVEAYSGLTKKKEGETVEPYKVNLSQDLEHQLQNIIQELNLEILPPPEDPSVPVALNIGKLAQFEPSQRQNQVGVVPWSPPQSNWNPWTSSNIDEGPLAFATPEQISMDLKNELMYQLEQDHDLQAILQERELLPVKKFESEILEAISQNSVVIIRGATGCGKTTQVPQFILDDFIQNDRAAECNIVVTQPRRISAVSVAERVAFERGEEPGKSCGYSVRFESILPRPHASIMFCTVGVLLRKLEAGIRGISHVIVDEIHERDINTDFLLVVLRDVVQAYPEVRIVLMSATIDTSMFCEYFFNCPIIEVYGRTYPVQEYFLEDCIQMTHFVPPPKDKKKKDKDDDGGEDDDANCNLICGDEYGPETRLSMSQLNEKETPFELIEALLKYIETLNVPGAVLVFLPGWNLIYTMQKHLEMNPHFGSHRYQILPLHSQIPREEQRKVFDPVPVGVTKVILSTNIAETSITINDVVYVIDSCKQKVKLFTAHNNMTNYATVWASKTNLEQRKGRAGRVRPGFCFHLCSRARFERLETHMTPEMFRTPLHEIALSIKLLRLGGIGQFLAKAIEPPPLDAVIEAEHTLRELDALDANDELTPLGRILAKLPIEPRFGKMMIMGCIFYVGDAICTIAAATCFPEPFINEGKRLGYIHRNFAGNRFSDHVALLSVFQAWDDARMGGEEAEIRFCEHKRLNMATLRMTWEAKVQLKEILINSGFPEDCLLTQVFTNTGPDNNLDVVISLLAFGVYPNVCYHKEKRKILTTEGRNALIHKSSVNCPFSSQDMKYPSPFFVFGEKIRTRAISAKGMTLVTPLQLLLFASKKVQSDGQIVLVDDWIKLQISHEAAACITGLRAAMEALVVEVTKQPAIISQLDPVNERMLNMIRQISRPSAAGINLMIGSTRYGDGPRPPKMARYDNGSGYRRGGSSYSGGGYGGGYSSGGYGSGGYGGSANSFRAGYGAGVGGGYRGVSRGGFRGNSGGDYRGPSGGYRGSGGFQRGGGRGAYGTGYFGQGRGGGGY
UniProt Q92841: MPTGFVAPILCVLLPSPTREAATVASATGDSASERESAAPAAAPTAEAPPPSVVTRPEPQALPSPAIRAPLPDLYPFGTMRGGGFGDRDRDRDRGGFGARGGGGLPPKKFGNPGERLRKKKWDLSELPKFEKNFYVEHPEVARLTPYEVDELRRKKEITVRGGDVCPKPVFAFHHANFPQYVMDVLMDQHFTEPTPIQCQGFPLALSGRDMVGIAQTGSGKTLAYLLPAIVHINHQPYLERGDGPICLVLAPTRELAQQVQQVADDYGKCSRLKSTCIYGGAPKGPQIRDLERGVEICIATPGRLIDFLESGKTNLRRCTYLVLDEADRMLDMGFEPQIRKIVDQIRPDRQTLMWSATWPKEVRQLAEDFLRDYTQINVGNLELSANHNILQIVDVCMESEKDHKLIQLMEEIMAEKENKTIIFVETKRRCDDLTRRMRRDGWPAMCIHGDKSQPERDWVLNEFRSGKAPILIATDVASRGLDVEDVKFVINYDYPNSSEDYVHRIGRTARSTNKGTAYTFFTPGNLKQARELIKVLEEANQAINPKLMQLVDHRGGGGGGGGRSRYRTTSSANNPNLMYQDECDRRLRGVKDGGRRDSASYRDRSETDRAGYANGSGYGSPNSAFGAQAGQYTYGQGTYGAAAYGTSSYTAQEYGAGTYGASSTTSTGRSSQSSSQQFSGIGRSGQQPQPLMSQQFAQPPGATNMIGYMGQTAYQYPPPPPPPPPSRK
UniProt Q8TDD1: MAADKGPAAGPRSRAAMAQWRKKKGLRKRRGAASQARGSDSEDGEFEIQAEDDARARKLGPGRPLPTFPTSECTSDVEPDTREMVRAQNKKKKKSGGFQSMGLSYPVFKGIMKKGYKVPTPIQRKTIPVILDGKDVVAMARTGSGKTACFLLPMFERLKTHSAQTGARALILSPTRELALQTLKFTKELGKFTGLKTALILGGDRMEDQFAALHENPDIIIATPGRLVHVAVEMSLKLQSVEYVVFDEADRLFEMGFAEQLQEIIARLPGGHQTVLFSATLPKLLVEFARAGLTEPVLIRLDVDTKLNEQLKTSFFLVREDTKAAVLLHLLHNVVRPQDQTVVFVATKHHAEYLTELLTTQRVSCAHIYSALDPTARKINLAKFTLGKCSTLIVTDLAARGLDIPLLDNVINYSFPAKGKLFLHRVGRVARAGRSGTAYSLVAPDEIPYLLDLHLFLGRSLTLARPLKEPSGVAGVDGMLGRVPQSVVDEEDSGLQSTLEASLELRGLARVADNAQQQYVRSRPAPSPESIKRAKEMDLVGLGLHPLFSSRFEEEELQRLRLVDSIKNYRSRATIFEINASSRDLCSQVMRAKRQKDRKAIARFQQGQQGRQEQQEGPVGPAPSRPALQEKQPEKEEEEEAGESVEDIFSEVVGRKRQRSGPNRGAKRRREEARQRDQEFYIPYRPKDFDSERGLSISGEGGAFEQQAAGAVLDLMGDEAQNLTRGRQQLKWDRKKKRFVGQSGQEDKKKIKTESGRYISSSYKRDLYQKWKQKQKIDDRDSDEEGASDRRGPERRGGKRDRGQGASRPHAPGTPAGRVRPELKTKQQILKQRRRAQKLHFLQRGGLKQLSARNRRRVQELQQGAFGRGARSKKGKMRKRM

Key:
[1] = target: DHX9 (human (endogenous in SK-BR-3, MCF-7, MDA-MB-231)) (UniProt Q08211); experiment: co-IP; as a2, but 20 U RNase III with MnCl2 added to the lysate during overnight mixing with the antibody
[2] = target: DHX9 (human (endogenous in SK-BR-3, MCF-7, MDA-MB-231)) (UniProt Q08211); experiment: co-IP; endogenous proteins; 1 mg RIPA lysate with RNaseOUT (no RNase), 2-10 µg antibody against the bait overnight at 4°C, Protein G Dynabeads, immunoblot for ADAR1; SK-BR-3, MCF-7, MDA-MB-231
[3] = target: DDX17 (human (endogenous in SK-BR-3, MCF-7)) (UniProt Q92841); experiment: as above
[4] = target: DDX54 (human (endogenous in SK-BR-3, MCF-7)) (UniProt Q8TDD1); experiment: as above
[5] = target: DHX9 (human (endogenous in SK-BR-3, MCF-7, MDA-MB-231)) (UniProt Q08211); experiment: co-IP; as a2, but 20 µg RNase A added to the lysate during overnight mixing with the antibody
[6] = target: DDX17 (human (endogenous in SK-BR-3, MCF-7)) (UniProt Q92841); experiment: as above
[7] = target: DDX54 (human (endogenous in SK-BR-3, MCF-7)) (UniProt Q8TDD1); experiment: as above

binding [1] | binding [2] | binding [3] | binding [4] | binding [5] | binding [6] | binding [7] | Binder
binds | binds | binds | binds | binds | binds | binds | ADAR1-p110 (protein, UniProt P55265-5 1-931) MAEIKEKICDYLFNVSDSSALNLAKNIGLTKARDINAVLIDMERQGDVYRQGTTPPIWHLTDKKRERMQIKRNTNSVPETAPAAIPETKRNAEFLTCNIPTSNASNNMVTTEKVENGQEPVIKLENRQEARPEPARLKPPVHYNGPSKAGYVDFENGQWATDDIPDDLNSIRAAPGEFRAIMEMPSFYSHGLPRCSPYKKLTECQLKNPISGLLEYAQFASQTCEFNMIEQSGPPHEPRFKFQVVINGREFPPAEAGSKKVAKQDAAMKAMTILLEEAKAKDSGKSEESSHYSTEKESEKTAESQTPTPSATSFFSGKSPVTTLLECMHKLGNSCEFRLLSKEGPAHEPKFQYCVAVGAQTFPSVSAPSKKVAKQMAAEEAMKALHGEATNSMASDNQPEGMISESLDNLESMMPNKVRKIGELVRYLNTNPVGGLLEYARSHGFAAEFKLVDQSGPPHEPKFVYQAKVGGRWFPAVCAHSKKQGKQEAADAALRVLIGENEKAERMGFTEVTPVTGASLRRTMLLLSRSPEAQPKTLPLTGSTFHDQIAMLSHRCFNTLTNSFQPSLLGRKILAAIIMKKDSEDMGVVVSLGTGNRCVKGDSLSLKGETVNDCHAEIISRRGFIRFLYSELMKYNSQTAKDSIFEPAKGGEKLQIKKTVSFHLYISTAPCGDGALFDKSCSDRAMESTESRHYPVFENPKQGKLRTKVENGEGTIPVESSDIVPTWDGIRLGERLRTMSCSDKILRWNVLGLQGALLTHFLQPIYLKSVTLGYLFSQGHLTRAICCRVTRDGSAFEDGLRHPFIVNHPKVGRVSIYDSKRQSGKTKETSVNWCLADGYDLEILDGTRGTVDGPRNELSRVSKKNIFLLFKKLCSFRYRRDLLRLSYGEAKKAARDYETAKNYFKKGLKDMGYGNWISKPQEEKNFYLCPV
binds | binds |  |  |  |  |  | ADAR1-p150 (protein, UniProt P55265-1 1-1226) MNPRQGYSLSGYYTHPFQGYEHRQLRYQQPGPGSSPSSFLLKQIEFLKGQLPEAPVIGKQTPSLPPSLPGLRPRFPVLLASSTRGRQVDIRGVPRGVHLRSQGLQRGFQHPSPRGRSLPQRGVDCLSSHFQELSIYQDQEQRILKFLEELGEGKATTAHDLSGKLGTPKKEINRVLYSLAKKGKLQKEAGTPPLWKIAVSTQAWNQHSGVVRPDGHSQGAPNSDPSLEPEDRNSTSVSEDLLEPFIAVSAQAWNQHSGVVRPDSHSQGSPNSDPGLEPEDSNSTSALEDPLEFLDMAEIKEKICDYLFNVSDSSALNLAKNIGLTKARDINAVLIDMERQGDVYRQGTTPPIWHLTDKKRERMQIKRNTNSVPETAPAAIPETKRNAEFLTCNIPTSNASNNMVTTEKVENGQEPVIKLENRQEARPEPARLKPPVHYNGPSKAGYVDFENGQWATDDIPDDLNSIRAAPGEFRAIMEMPSFYSHGLPRCSPYKKLTECQLKNPISGLLEYAQFASQTCEFNMIEQSGPPHEPRFKFQVVINGREFPPAEAGSKKVAKQDAAMKAMTILLEEAKAKDSGKSEESSHYSTEKESEKTAESQTPTPSATSFFSGKSPVTTLLECMHKLGNSCEFRLLSKEGPAHEPKFQYCVAVGAQTFPSVSAPSKKVAKQMAAEEAMKALHGEATNSMASDNQPEGMISESLDNLESMMPNKVRKIGELVRYLNTNPVGGLLEYARSHGFAAEFKLVDQSGPPHEPKFVYQAKVGGRWFPAVCAHSKKQGKQEAADAALRVLIGENEKAERMGFTEVTPVTGASLRRTMLLLSRSPEAQPKTLPLTGSTFHDQIAMLSHRCFNTLTNSFQPSLLGRKILAAIIMKKDSEDMGVVVSLGTGNRCVKGDSLSLKGETVNDCHAEIISRRGFIRFLYSELMKYNSQTAKDSIFEPAKGGEKLQIKKTVSFHLYISTAPCGDGALFDKSCSDRAMESTESRHYPVFENPKQGKLRTKVENGEGTIPVESSDIVPTWDGIRLGERLRTMSCSDKILRWNVLGLQGALLTHFLQPIYLKSVTLGYLFSQGHLTRAICCRVTRDGSAFEDGLRHPFIVNHPKVGRVSIYDSKRQSGKTKETSVNWCLADGYDLEILDGTRGTVDGPRNELSRVSKKNIFLLFKKLCSFRYRRDLLRLSYGEAKKAARDYETAKNYFKKGLKDMGYGNWISKPQEEKNFYLCPV
